# Measurements reported in PubChem BioAssay AID1259308 (NCATS, 2017)
# Assay: 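Genes whose loss raises luciferase production in HEK293 cells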 (primary screen)
# Cells: human HEK293 embryonic kidney cells stably expressing firefly luciferase (HEK-CMV-Luc2-Hygro)
# Reagents: single siRNA against human genes, 0.8 pmol siRNA per well
# Duration: 72 h
# Read-out: 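Luciferase light (ONE-Glo) measured on one replicate plate set and viability (CellTiter-Glo) on the other, scaled to a negative control siRNA, with robust z-scores and luciferase per cell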
# Direction: total luciferase, z-score and total luciferase, % of control: higher = more reporter protein produced; luciferase per cell, z-score: higher = more reporter output per viable cell
# Active means: 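An siRNA counts as active if its total luciferase robust z-score exceeds 3; genes with two or more such siRNAs out of three were retested with fresh siRNAs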
# Calls: active = raised luciferase; inactive = no rise
# Shown is one part, drawn at random, of about 59,000 reagents. In the full data, about 1,510 (2.6%) got an active call. 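Calls use total luciferase alone and ignore viability, so some active siRNAs may act by altering cell number.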 A number with no mark means an inactive call. Reagents against one gene are numbered here. Further read-outs or replicates are left out here. Reagent sequences are not shown.
gene knocked down,reagent no.,"total luciferase, z-score","total luciferase, % of control","luciferase per cell, z-score"
HOOK1 (GeneID 51361),1,-0.0404,81.1,-0.575
HOOK1 (GeneID 51361),2,-0.613,69.7,-0.404
HOOK1 (GeneID 51361),3,1.67,115,1.67
ARHGEF4 (GeneID 50649),1,1.99,121,1.32
ARHGEF4 (GeneID 50649),2,-1.51,51.8,-1.5
ARHGEF4 (GeneID 50649),3,-0.0502,80.9,-0.38
LSP1P5 (GeneID 645166),1,-0.0866,80.2,0.882
LSP1P5 (GeneID 645166),2,0.573,93.3,-0.202
LSP1P5 (GeneID 645166),3,1.31,108,0.765
WNK2 (GeneID 65268),1,0.759,97,0.615
WNK2 (GeneID 65268),2,1.87,119,1.74
WNK2 (GeneID 65268),3,-0.521,71.5,0.101
EIF3D (GeneID 8664),1,-0.617,69.6,0.158
EIF3D (GeneID 8664),2,-1.78,46.6,-1.02
EIF3D (GeneID 8664),3,-1.51,51.9,-1.37
TM9SF1 (GeneID 10548),1,-0.511,71.7,-0.509
TM9SF1 (GeneID 10548),2,2.2,126,2.57
TM9SF1 (GeneID 10548),3,0.104,84,0.205
BAGE (GeneID 574),1,0.916,100,1.15
BAGE (GeneID 574),2,-1.79,46.3,-1.96
BAGE (GeneID 574),3,1.33,108,2.15
GRIP1 (GeneID 23426),1,2.35,129,1.28
GRIP1 (GeneID 23426),2,1.04,103,0.45
GRIP1 (GeneID 23426),3,-0.559,70.8,-0.83
TOX2 (GeneID 84969),1,-0.984,62.3,0.718
TOX2 (GeneID 84969),2,-1.08,60.3,-1.29
TOX2 (GeneID 84969),3,1.25,107,0.76
PPP2R3A (GeneID 5523),1,2.81,138,2.78
PPP2R3A (GeneID 5523),2,0.00507,82,0.671
PPP2R3A (GeneID 5523),3,1.23,106,0.925
TNRC18P2 (GeneID 27320),1,-0.716,67.6,-0.781
TNRC18P2 (GeneID 27320),2,-1.48,52.4,-0.613
TNRC18P2 (GeneID 27320),3,0.71,96,1.08
RPL29 (GeneID 6159),1,-1.51,51.9,-0.296
RPL29 (GeneID 6159),2,-0.923,63.5,-0.946
RPL29 (GeneID 6159),3,1.11,104,0.566
AOC3 (GeneID 8639),1,-0.685,68.3,-0.719
AOC3 (GeneID 8639),2,-1.27,56.7,-1.33
AOC3 (GeneID 8639),3,0.37,89.3,0.234

Individual results from the entries so far:
For “luciferase per cell, z-score”, ARHGEF4 (GeneID 50649) #2 shows -1.5
Entry for GRIP1 (GeneID 23426) #3 in “total luciferase, % of control”: 70.8
Under “luciferase per cell, z-score”, GRIP1 (GeneID 23426) #2 shows 0.45
Value of HOOK1 (GeneID 51361) #1 in “luciferase per cell, z-score”: -0.575
Value of RPL29 (GeneID 6159) #2 in “total luciferase, z-score”: -0.923
